Consider two substances from paper PMC5009064.

Sequences of proteins named here, by UniProt entry; tags and fusion partners are left off. A change or cut given only in a name is not applied to a line headed by its entry.
UniProt Q9HC29: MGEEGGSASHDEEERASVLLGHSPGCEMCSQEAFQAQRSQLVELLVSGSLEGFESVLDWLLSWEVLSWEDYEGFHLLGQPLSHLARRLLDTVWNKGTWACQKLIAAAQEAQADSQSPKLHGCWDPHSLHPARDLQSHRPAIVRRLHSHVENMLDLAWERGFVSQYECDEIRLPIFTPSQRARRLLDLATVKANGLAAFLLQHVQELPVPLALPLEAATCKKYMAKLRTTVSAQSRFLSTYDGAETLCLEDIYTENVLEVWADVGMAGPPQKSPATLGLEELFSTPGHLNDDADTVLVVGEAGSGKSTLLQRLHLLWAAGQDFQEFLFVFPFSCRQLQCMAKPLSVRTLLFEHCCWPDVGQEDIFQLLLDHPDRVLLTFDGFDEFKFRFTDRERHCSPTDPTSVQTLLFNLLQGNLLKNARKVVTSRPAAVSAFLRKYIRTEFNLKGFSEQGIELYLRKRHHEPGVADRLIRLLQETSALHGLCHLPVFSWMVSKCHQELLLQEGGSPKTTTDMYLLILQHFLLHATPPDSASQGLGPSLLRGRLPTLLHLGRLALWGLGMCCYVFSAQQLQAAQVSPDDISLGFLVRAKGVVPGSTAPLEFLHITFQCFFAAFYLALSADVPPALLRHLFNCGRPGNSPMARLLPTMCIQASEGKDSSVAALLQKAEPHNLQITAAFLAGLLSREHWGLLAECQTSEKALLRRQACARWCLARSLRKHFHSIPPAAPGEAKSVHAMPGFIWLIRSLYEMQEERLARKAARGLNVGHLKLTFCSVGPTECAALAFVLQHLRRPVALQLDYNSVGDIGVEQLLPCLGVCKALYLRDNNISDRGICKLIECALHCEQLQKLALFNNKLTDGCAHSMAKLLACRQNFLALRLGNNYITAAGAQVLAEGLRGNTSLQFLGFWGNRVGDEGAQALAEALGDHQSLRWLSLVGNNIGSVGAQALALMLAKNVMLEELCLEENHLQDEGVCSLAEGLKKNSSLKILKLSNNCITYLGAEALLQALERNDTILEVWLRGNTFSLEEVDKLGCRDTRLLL
UniProt Q96EP0: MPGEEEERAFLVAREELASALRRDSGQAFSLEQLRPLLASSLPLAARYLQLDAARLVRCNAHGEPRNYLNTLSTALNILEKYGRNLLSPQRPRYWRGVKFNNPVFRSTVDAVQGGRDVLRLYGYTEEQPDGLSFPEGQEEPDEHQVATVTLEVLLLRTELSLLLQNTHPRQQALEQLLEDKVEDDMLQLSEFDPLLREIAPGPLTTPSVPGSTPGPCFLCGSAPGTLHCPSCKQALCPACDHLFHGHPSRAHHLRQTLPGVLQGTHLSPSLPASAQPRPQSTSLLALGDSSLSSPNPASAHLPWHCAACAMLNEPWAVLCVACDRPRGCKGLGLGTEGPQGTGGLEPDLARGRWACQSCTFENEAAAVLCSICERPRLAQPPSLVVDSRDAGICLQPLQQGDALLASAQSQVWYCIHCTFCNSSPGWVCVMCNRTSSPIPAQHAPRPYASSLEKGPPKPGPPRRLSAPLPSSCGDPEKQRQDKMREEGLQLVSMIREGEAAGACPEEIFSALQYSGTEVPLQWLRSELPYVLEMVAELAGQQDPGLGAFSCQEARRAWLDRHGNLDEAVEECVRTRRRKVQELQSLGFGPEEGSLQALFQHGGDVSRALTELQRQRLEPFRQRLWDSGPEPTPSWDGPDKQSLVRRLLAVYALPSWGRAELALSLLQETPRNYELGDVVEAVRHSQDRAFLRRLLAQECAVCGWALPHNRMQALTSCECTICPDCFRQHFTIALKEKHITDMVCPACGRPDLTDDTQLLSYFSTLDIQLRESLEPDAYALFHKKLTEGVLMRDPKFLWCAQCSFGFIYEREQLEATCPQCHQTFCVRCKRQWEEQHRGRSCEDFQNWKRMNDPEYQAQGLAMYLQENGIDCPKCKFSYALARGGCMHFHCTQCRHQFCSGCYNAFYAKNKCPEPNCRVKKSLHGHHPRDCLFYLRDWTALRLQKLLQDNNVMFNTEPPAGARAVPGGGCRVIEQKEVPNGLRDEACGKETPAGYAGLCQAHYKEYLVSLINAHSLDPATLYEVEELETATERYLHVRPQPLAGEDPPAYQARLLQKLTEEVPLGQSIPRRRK

One assay addresses T1, CYLD-USP domain (UniProt Q9NQC7).
T1 sequence: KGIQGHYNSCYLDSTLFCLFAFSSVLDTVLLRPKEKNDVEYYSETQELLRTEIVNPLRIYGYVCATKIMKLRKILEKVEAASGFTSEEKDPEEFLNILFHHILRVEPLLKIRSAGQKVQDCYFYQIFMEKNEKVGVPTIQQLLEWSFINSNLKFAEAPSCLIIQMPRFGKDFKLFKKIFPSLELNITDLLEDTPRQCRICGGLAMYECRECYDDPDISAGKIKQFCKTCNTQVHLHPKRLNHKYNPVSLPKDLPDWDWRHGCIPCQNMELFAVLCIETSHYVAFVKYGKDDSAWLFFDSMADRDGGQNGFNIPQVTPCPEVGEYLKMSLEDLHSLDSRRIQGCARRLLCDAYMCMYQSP
The assay can be described thus: condition: 398 μM HOIP-PUB domain into the CYLD-USP domain at 40 μM; ITC; 293 K, ITC-200; 25 mM HEPES pH 7.5, 150 mM NaCl, 0.5 mM TCEP; 20 injections of 2 ul HOIP-PUB domain into peptide or domain in the cell; 1:1 binding model; both purified.

Assay [1] addresses T2, peptide derived from the PIM motif of OTULIN.
T2 sequence (peptide): AEHEEDMYRA
Kind of assay: ITC; 293 K, ITC-200; 25 mM HEPES pH 7.5, 150 mM NaCl, 0.5 mM TCEP; 20 injections of 2 ul HOIP-PUB domain into peptide or domain in the cell; 1:1 binding model; both purified. In general terms: In ITC the heat of successive injections is recorded.

A further assay addresses NOD2-TAP (UniProt Q9HC29). Kind of assay: co-IP; A549 cells stably transfected with NOD2-TAP, stimulated with L18-MDP (200 ng/ml), NOD2-SC purified, western blot.
Assay [2] concerns the target T3, GFP-SPATA2 fragment comprising amino acids 1-116 (UniProt Q9UM82).
T3 sequence: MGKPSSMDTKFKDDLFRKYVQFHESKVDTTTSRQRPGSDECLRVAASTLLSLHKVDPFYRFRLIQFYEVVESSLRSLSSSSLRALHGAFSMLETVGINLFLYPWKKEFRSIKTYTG
Kind of assay: co-IP; truncated forms of GFP-SPATA2 expressed in HEK293 cells; anti-GFP IP, western blot for HOIP and CYLD. On the technique in general: In western blotting, separated proteins are transferred to a membrane and probed.

No constants are given. Whether binding was seen depends on the method and setting. For some of these results: In cells and extracts the contact can be indirect. Some binding calls cover weakened binding; strength is not graded here. For some of these results: Tags and fused reporters may be left off the sequences shown.

Consider “HOIP-PUB domain (from UniProt Q96EP0 71-142) (domain or fragment)”, for which the binding result with CYLD-USP domain was “no binding”; in assay [1], “binds”.
For “HOIP (from UniProt Q96EP0 1-1072) (enzyme)”, the binding result in the assay with NOD2-TAP is given as “binds”; in assay [2], “no binding”.
